Measurements taken from the supplement of paper PMC10849652.
The other results are listed elsewhere or left out.

The chains behind the UniProt entries cited, without tags or fusion partners. Where a name states a change or a piece, a line headed by the entry shows the natural chain unless it says otherwise.
UniProt Q8IUR7, whole entry, looked up: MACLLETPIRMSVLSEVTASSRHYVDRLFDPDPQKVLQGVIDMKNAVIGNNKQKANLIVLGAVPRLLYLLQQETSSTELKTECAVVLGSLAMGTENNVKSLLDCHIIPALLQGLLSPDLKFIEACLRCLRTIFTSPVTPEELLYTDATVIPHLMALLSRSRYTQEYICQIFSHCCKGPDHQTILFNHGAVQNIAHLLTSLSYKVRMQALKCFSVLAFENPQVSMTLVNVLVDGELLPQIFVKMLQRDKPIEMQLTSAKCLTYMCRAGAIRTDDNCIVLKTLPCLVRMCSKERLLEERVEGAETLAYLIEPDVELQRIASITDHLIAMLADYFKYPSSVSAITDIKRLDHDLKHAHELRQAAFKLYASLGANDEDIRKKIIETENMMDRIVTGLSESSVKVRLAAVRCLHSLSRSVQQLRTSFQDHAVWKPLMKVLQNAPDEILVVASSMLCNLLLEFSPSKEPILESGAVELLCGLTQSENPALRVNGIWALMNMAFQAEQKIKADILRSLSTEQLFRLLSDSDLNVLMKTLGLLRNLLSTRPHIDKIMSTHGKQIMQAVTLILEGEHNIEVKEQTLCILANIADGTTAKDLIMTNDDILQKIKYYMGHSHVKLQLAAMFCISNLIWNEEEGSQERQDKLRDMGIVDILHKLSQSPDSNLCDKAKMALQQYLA
UniProt P31939: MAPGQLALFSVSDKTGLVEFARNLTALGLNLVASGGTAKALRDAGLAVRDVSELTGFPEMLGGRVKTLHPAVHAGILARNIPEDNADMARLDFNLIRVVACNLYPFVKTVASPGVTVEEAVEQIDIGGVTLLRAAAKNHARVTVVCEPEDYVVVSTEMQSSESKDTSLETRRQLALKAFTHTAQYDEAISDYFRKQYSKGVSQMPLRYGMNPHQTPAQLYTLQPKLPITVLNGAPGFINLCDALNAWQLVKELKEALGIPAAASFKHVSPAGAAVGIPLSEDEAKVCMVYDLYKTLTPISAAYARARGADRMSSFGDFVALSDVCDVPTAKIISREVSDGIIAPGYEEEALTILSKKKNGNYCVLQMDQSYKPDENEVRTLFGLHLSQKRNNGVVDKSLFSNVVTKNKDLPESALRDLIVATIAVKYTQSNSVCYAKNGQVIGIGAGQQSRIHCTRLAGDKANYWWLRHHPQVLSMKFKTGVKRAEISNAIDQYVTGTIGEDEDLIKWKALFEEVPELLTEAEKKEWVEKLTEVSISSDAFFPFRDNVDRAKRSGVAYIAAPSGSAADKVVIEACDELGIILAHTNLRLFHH
UniProt Q13510, whole entry, looked up: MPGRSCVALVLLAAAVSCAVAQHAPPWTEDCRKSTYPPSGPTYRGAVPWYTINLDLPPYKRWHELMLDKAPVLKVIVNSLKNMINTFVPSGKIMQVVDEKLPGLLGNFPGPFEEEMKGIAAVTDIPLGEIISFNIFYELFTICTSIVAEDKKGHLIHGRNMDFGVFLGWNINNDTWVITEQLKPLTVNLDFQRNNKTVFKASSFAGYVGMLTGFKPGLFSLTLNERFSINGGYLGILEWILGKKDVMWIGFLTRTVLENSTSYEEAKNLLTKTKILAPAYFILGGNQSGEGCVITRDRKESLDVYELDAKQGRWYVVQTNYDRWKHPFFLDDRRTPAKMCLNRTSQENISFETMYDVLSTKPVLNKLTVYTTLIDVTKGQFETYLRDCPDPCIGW
UniProt Q16864, whole entry, looked up: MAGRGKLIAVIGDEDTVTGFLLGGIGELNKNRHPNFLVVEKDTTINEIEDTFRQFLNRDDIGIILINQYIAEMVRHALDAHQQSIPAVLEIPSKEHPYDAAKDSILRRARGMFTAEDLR
UniProt P56381: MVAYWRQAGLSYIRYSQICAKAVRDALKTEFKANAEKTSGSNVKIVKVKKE
UniProt Q04656: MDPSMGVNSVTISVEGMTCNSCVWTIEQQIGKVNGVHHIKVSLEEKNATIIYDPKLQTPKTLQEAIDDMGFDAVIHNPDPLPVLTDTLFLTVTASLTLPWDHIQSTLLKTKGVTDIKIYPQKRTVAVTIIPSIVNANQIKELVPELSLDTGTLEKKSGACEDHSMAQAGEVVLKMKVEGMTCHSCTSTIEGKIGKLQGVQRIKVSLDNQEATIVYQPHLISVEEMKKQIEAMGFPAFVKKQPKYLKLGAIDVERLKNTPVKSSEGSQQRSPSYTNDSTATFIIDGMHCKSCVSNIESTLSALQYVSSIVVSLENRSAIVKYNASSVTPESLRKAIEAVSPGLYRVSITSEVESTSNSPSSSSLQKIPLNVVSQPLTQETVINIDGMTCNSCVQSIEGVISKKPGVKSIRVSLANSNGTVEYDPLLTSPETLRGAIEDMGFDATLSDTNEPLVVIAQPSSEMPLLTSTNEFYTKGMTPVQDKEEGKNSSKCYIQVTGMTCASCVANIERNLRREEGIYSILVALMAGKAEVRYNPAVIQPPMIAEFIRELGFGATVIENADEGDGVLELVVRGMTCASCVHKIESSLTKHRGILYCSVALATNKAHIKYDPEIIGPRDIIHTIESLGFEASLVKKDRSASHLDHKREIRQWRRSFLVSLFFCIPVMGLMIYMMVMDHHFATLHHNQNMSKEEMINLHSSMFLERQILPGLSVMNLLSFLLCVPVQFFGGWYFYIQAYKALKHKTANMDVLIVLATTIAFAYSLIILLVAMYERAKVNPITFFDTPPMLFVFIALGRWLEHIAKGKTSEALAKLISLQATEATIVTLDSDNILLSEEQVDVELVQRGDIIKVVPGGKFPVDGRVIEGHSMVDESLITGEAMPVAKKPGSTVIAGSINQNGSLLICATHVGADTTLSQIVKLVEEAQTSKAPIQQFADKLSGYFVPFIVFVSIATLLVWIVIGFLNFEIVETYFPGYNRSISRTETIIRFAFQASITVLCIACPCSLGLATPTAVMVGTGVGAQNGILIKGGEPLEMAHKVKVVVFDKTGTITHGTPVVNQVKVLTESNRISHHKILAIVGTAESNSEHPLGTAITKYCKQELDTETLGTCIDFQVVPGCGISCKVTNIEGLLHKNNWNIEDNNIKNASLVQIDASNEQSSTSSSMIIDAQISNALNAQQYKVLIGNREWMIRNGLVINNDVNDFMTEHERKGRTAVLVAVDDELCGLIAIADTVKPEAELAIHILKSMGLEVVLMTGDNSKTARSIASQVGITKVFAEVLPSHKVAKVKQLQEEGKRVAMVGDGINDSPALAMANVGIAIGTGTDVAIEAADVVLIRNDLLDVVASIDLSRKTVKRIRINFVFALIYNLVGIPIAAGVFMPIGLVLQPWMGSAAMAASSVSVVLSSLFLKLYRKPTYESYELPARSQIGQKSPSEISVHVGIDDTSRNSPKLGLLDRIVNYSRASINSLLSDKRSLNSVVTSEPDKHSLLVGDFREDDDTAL
UniProt O00244: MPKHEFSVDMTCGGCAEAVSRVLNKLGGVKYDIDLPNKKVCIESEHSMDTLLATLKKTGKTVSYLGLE
UniProt P56378: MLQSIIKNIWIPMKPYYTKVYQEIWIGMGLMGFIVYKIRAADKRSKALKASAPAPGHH
UniProt Q96BY7: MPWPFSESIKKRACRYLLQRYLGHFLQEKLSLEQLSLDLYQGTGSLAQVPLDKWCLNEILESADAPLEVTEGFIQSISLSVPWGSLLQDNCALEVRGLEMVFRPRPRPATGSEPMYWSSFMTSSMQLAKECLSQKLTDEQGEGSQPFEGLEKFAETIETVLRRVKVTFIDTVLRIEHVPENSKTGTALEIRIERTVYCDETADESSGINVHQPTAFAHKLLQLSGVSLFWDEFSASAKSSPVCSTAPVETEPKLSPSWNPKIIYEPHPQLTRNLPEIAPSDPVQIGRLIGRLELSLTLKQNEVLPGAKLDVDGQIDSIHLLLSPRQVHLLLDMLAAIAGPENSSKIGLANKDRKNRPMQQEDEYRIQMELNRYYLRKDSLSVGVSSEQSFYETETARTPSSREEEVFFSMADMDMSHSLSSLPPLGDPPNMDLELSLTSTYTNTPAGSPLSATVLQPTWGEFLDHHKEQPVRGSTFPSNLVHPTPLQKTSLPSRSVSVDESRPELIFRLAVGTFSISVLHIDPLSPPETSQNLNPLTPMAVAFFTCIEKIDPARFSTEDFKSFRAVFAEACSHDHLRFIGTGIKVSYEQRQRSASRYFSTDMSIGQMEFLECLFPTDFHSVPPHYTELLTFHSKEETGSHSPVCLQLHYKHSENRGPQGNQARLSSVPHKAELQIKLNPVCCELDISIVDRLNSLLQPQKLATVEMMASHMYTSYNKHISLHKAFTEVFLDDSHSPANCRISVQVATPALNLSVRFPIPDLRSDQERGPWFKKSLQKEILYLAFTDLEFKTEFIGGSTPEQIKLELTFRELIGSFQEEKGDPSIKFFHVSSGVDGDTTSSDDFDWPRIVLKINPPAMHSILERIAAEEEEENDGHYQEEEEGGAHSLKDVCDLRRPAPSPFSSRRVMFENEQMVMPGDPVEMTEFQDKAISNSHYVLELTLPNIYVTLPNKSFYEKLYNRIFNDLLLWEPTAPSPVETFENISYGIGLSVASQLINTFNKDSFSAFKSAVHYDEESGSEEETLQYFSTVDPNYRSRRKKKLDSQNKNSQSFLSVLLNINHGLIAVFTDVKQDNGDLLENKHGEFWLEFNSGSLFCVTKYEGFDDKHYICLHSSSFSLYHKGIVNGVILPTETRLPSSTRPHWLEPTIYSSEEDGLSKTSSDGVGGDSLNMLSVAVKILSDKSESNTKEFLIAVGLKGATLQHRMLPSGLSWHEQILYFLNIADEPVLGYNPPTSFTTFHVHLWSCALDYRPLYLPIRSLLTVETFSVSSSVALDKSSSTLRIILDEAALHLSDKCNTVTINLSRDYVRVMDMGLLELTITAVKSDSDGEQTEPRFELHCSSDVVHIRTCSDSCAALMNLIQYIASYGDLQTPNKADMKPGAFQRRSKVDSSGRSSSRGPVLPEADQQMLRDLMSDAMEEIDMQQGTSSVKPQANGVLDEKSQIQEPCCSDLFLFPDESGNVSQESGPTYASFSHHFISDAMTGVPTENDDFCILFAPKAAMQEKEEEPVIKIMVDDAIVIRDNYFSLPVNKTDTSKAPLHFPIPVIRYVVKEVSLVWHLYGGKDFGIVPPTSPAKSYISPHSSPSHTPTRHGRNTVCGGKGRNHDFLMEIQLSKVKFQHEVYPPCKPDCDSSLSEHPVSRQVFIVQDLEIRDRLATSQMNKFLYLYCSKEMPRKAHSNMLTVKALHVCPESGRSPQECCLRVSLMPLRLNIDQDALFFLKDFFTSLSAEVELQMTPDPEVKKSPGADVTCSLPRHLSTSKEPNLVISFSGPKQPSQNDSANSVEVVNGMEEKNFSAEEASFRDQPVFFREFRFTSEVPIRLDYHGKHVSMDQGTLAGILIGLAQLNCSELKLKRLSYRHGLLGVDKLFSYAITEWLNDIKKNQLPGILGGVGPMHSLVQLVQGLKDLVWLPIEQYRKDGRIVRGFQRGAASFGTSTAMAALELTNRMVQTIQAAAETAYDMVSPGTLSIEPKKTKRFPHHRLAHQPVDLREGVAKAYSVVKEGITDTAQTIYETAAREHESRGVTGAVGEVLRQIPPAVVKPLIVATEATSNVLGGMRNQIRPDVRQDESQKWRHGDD
UniProt P36404: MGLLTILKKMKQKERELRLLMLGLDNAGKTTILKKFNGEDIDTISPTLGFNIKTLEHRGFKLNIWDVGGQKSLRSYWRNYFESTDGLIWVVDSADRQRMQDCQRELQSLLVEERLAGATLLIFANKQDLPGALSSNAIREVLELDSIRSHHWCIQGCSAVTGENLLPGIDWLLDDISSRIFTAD
UniProt P21281, whole entry, looked up: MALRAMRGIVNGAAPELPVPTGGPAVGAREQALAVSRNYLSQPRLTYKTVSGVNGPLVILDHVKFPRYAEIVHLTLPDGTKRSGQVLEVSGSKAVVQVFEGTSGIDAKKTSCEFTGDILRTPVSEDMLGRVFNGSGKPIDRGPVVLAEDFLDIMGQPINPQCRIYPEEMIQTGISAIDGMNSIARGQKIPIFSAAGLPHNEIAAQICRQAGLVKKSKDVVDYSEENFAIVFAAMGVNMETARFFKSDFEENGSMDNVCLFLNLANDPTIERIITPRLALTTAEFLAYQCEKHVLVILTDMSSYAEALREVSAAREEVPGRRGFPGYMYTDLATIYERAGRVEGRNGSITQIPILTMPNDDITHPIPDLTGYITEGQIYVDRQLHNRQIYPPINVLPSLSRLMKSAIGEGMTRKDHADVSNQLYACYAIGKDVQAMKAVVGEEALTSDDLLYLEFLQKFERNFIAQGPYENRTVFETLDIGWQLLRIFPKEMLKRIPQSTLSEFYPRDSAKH
UniProt O43681: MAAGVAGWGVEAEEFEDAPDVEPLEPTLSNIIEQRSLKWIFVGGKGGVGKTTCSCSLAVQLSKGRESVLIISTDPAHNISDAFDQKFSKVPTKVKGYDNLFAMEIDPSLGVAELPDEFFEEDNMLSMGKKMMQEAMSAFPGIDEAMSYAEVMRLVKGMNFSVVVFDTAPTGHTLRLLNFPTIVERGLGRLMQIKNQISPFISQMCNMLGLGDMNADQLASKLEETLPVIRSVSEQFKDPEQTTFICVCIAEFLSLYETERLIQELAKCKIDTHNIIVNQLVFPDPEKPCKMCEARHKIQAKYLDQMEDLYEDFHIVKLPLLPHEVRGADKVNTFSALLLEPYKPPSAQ

What follows are targets tested with NC(=O)Nc1cc(-c2cccc(F)c2)sc1C(=O)N[C@H]1CCCNC1 (assay: log2 fold change, soluble protein after heating vs DMSO (PISA); higher = thermal stabilisation; K562 cells, 10 uM, 30 min; active = over 0.2 and 3.5 SD of the protein, either way, in both replicates (recomputed)).
Procedure, shortened: (§1)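 Values are thermal stability changes relative to control samples and are taken from duplicates. They are stated as log2 fold changes. Before quantification by TMTpro 16plex LC-MS/MS with equalised channel sums, K562 cells at 2×10^6 cells/mL were treated with 10 μM compound for 30 min, heated in aliquots for 3 min across 48°C-58°C, pooled, extracted in PBS with 0.5% NP-40 at 4°C, and centrifuged at 21,000xg for 90 min to give the soluble supernatant.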

log2 fold change, inactive:
ASAP1 isoform 2 (UniProt Q9ULH1) -0.009
ATP11C (UniProt Q8NB49) 0.006
ASF1A (UniProt Q9Y294) 0.058
ATM (UniProt Q13315) -0.035
ARMC8 (UniProt Q8IUR7) -0.044
ATG13 isoform 5 (UniProt O75143) 0.031
ATIC (UniProt P31939) -0.023
ARPP19 (UniProt P56211) -0.049
ATG4B isoform 2 (UniProt Q9Y4P1) 0.08
ASH2L (UniProt Q9UBL3) -0.025
ASS1 (UniProt P00966) -0.054
ARL13B (UniProt Q3SXY8) -0.186
ASAH1 isoform 2 (UniProt Q13510) 0.023
ATP6V1F isoform 2 (UniProt Q16864) 0.175
ATP5MF (UniProt P56134) -0.02
ATP5F1E (UniProt P56381) 0.015
ATP7A isoform 3 (UniProt Q04656) -0.021

The targets below were run with NC(=O)c1cnc(N[C@@H]2CCCC[C@@H]2N)nc1Nc1cccc(-n2nccn2)c1 in the same assay as above.
Procedure, shortened: as §1

log2 fold change, inactive:
ATG9A (UniProt Q7Z3C6) 0
ASPH (UniProt Q12797) 0
ATG16L1 (UniProt Q676U5) -0.053
ARPC1B (UniProt O15143) 0.136
ARPC4 isoform 3 (UniProt P59998) 0.003
ATP7B (UniProt P35670) -0.139
ARMT1 (UniProt Q9H993) -0.114
ATOX1 (UniProt O00244) 0.273
ATP5MPL (UniProt P56378) -0.113
ATG2A isoform 3 (UniProt Q2TAZ0) -0.028
ARL15 (UniProt Q9NXU5) 0.171
ATP5F1A (UniProt P25705) -0.01
ATG2B (UniProt Q96BY7) -0.04
ARL2 (UniProt P36404) -0.031
ATP6V1C1 (UniProt P21283) -0.135
ATP2A2 (UniProt P16615) -0.09
ATP6V1B2 (UniProt P21281) -0.011
ATP6V0A1 isoform 3 (UniProt Q93050) -0.207
ARPC5 (UniProt O15511) 0.01
ATP1B2 (UniProt P14415) 0.119
ASNA1 (UniProt O43681) 0
ATP2A3 isoform 2 (UniProt Q93084) 0.007
ASAP1 isoform 2 (UniProt Q9ULH1) -0.088
ATP11C (UniProt Q8NB49) 0.036
ASF1A (UniProt Q9Y294) -0.026
ATM (UniProt Q13315) -0.076
ARMC8 (UniProt Q8IUR7) 0.017
ATG13 isoform 5 (UniProt O75143) -0.075
ATIC (UniProt P31939) 0.001
ARPP19 (UniProt P56211) -0.075
ATG4B isoform 2 (UniProt Q9Y4P1) -0.104
ASH2L (UniProt Q9UBL3) -0.075
ASS1 (UniProt P00966) -0.184
ARL13B (UniProt Q3SXY8) 0.046
ASAH1 isoform 2 (UniProt Q13510) -0.008
ATP6V1F isoform 2 (UniProt Q16864) 0.221
ATP5MF (UniProt P56134) 0.063
ATP5F1E (UniProt P56381) -0.013
ATP7A isoform 3 (UniProt Q04656) 0.05
